{
  "sequences": {"note": "Sequences of proteins named here, by UniProt entry; tags and fusion partners are left off.", "UniProt Q9S823": "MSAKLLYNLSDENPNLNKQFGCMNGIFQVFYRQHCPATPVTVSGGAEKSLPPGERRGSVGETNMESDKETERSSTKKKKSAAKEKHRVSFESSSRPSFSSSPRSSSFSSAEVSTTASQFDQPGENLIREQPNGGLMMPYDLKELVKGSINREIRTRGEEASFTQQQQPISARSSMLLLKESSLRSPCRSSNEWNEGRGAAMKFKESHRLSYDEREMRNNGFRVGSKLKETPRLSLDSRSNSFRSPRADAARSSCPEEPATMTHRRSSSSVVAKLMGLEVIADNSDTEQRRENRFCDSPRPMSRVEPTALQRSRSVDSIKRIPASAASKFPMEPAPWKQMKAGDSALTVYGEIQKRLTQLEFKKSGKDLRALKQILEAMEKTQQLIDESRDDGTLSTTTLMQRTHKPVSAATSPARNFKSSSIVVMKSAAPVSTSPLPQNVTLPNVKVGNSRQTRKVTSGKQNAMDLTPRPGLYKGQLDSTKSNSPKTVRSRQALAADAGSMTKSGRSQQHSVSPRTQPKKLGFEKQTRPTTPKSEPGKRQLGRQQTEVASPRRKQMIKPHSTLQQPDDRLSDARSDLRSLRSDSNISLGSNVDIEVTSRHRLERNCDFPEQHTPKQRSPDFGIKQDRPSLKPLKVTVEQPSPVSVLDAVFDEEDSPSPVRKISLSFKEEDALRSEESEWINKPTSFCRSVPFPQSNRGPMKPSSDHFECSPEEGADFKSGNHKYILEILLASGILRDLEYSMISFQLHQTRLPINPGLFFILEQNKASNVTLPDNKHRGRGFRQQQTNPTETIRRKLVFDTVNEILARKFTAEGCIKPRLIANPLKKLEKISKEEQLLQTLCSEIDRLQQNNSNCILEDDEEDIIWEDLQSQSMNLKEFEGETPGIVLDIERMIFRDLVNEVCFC", "UniProt F4J061": "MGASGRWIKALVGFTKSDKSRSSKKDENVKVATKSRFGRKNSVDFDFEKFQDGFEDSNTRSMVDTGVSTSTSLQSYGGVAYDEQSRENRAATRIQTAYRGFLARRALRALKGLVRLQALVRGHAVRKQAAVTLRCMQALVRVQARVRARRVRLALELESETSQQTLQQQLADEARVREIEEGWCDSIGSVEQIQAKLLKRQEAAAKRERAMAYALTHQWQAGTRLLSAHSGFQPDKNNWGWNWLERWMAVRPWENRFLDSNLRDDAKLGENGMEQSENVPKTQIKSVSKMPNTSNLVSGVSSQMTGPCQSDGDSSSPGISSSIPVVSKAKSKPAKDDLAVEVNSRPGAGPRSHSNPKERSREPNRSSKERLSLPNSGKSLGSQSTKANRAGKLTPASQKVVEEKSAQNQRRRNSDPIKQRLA"},
  "source": "paper doi:10.1101/268466",
  "key": {"[1]": {"target": "YC-TRM1 (TON1 RECRUITMENT MOTIF1 fused to the C-terminal half of YFP) (UniProt Q9S823)", "test": "split reporter"}, "[2]": {"target": "YC-CaM2 (CaM2 fused N-terminally to the C-terminal half of YFP) (UniProt P0DH97)", "test": "split reporter"}},
  "note": "No constants are given. Whether binding was seen depends on the method and setting. In cells and extracts the contact can be indirect. Some binding calls cover weakened binding; strength is not graded here.",
  "data": [
    {"substance": "YN-IQD5 (IQD5 fused N-terminally to the N-terminal half of YFP) (from UniProt F4J061 1-422)", "values": [
      {"measurement": "binding", "setting": "[1]", "result": "no binding"},
      {"measurement": "binding", "setting": "[2]", "result": "binds"}
    ]},
    {"substance": "YN-TRM1 (TON1 RECRUITMENT MOTIF1 fused to the N-terminal half of YFP) (from UniProt Q9S823 1-905)", "values": [
      {"measurement": "binding", "setting": "[2]", "result": "no binding"}
    ]}
  ]
}
